Laboratory results: PubChem BioAssay AID504834 (National Center for Advancing Translational Sciences (NCATS), 2011)
Hit rate of the full screen: of about 320,000 compounds, about 22,000 (6.9%) were called active. The inconclusive results got no clear call from the source; some entries with a clear call stand among them for comparison. The call rests on the fitted dose curve; in most records, active means well fitted inhibition curve with a large enough effect; inconclusive means small, poorly fitted or top-dose-only effect, or another doubt; inactive means no such curve, though single readings can be large or run the other way. A potency beside an inconclusive call is a rough fit, not a confirmed value.

assay: Primary qHTS for delayed death inhibitors of the malarial parasite plastid, 96 hour incubation; conditions: P. falciparum luciferase reporter growth; series mostly up to 28.7 µM; activity change, negative = inhibition: at the top concentration
How it was run: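 Two-generation exposure (96 h) targets delayed-death phenotype. Reporter parasites carrying integrated firefly luciferase, in red cells at 2% hematocrit and 0.05% parasitemia final, kept at 37 C, 5% CO2; luminescence loss indicates inhibition.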
On the % scale 0 is the no-effect control and ±100 the full control effect; potency means the concentration at half of the fitted maximal effect.

SMILES | activity change, negative = inhibition | Potency
Cc1ccc(-n2nc3c(c2NC(=O)C(C)C)CS(=O)(=O)C3)cc1 | inactive: 45.2% | 
Cc1ccc(S(=O)(=O)n2c(C)nc3ccccc32)cc1 |  | inconclusive: 10.4 µM [inhibitor, partial curve, poor fit]
Cc1cc(NC(=O)c2nn(C)c(C)c2Br)no1 | inactive: 191% | 
CCc1cccc(CC)c1NC(=O)CCCSc1nc2ccccc2s1 |  | inconclusive: 16.5 µM [inhibitor, single point]
Cc1ccnc(NC(=O)Nc2ccc3c(c2)N(C)C(=O)CS3)c1 |  | active: 13.1 µM
O=C(c1ccco1)N1CCC(c2nc(-c3ccccc3Cl)no2)CC1 | inactive: 0% | 
CCCCn1c(C)c(C(=O)O)c2cc(OC)ccc21 | inactive: 120% | 
CC(C)CN(CC(C)C)C(=O)c1cccc(S(=O)(=O)N2CCc3ccccc32)c1 |  | inconclusive: 13.1 µM [inhibitor, single point]
CC(=O)Oc1ccc2c(C)c(CC(=O)N3CCN(C(=O)C4COc5ccccc5O4)CC3)c(=O)oc2c1C (stereo unspecified) |  | inconclusive: 2.08 µM [inhibitor, partial curve]
COc1ccc(CCNC(=O)COc2ccc(S(=O)(=O)N3CCOCC3)cc2)cc1 |  | inconclusive: 11.7 µM [inhibitor, partial curve]
CN1C(=O)c2ccc(NC(=O)c3c(C(=O)O)cccc3[N+](=O)[O-])cc2C1=O | inactive: 57.2% | 
O=C(Nc1c(C(=O)Nc2cccc3ccccc23)cnn1-c1ccccc1)c1ccco1 |  | inconclusive: 18.5 µM [inhibitor, single point]
COc1ccc(Oc2cc(C)c3ccccc3n2)cc1 |  | inconclusive: 0.415 µM [inhibitor, full curve, poor fit]
CS(=O)(=O)N(CC(=O)Nc1ccc2c(c1)OCO2)c1ccc(Cl)cc1 | inactive: -23.5% | 
Cc1ccc(C(=O)NCCSC(C)(C)C)cc1 | inactive: 71.8% | 
O=C(Nc1cccc(C(F)(F)F)c1)C1CCN(S(=O)(=O)c2cccnc2)CC1 |  | inconclusive: 9.28 µM [inhibitor, partial curve, poor fit]
COc1ccc(C(=O)CN2C(=O)NC(C)(c3ccc(C)cc3)C2=O)cc1OC (stereo unspecified) |  | inconclusive: 0.522 µM [inhibitor, full curve, poor fit]
COc1cccc(CNC(=O)c2cc(S(=O)(=O)N3CCOCC3)cn2C)c1 |  | inconclusive: 18.5 µM [inhibitor, single point]
COc1cccc(-c2cc(CC3(O)CCN(CCCc4ccccc4)CC3)on2)c1 |  | inconclusive: 8.28 µM [inhibitor, single point]
Clc1ccc2nc(CN3CCCc4ccccc43)cn2c1 | inactive: -8.64% | 
Cc1ccccc1C(=O)Nc1ccnn1C1CCN(Cc2ccncc2)CC1 |  | inconclusive: 18.5 µM [inhibitor, single point]
Cc1cnc(C(=O)Nc2cccc(-c3nnc4n3CCCCC4)c2)cn1 |  | inconclusive: 7.38 µM [inhibitor, partial curve]
CN(C)S(=O)(=O)c1ccc(N2CCCC2)c(C(=O)NCC2CCCCC2)c1 |  | inconclusive: 4.15 µM [inhibitor, partial curve, poor fit]
COCC(C)NC(=O)c1ccccc1[N+](=O)[O-] (stereo unspecified) |  | inconclusive: 18.5 µM [inhibitor, single point]

SMILES | activity change, negative = inhibition | Potency
O=C(O)c1cccc(Oc2ccccc2[N+](=O)[O-])c1 |  | inconclusive: 9.28 µM [inhibitor, single point]
CCOC(=O)c1cccc(NC(=O)N2CCOCC2)c1 | inactive: -22.9% | 
COc1ccc2sc(-c3ccccc3OC)c(-c3ccc(OC)nc3)c2c1 |  | inconclusive: 10.4 µM [inhibitor, partial curve]
Cc1cc(C)nc(SCC(=O)NC2CCCC2)n1 | inactive: -2.01% | 
CCc1ccc(C2C(C#N)=C(N)N(N3CCOCC3)C3=C2C(=O)CC(C)(C)C3)s1 (stereo unspecified) |  | inconclusive: 5.86 µM [inhibitor, partial curve, poor fit]
CCC1(c2ccccc2)NC(=O)N(CC(=O)N(C)CC(=O)Nc2ccc(F)c(F)c2F)C1=O (stereo unspecified) |  | inconclusive: 13.1 µM [inhibitor, single point]
Cc1ccc2nc(CSc3nnc(-c4ccncc4)n3C)cc(=O)n2c1 | inactive: -28.4% | 
Cc1cc(OCC(O)CNC(C)c2ccccc2)ccc1C(C)C (stereo unspecified) |  | inconclusive: 5.22 µM [inhibitor, partial curve]
O=C(NCc1ccco1)c1ccc(Br)c(S(=O)(=O)N2CCCCC2)c1 |  | inconclusive: 2.33 µM [inhibitor, full curve, poor fit]
C=CCc1cccc(/C=N/n2cnnc2)c1O |  | inconclusive: 0.928 µM [inhibitor, partial curve, poor fit]
O=C(Nc1cc([N+](=O)[O-])ccc1O)c1cccc(C(=O)Nc2cc([N+](=O)[O-])ccc2O)c1 | inactive: -9.74% | 
O=C(N/N=C/c1cn(-c2ccccc2)nc1-c1cccnc1)c1cccnc1 |  | inconclusive: 4.65 µM [inhibitor, partial curve]
COc1ccccc1N(C)S(=O)(=O)c1ccc(C(=O)Nc2nnc(C)s2)cc1 |  | inconclusive: 8.28 µM [inhibitor, partial curve, poor fit]
Cn1cc(S(=O)(=O)N2CCN(Cc3ccccc3)CC2)c(=O)n(C)c1=O | inactive: 7.94% | 
CCN(CC)C(=O)c1cc(-c2ccc(Br)cc2)on1 |  | inconclusive: 2.08 µM [inhibitor, partial curve, poor fit]
O=C(Nc1ccnc(-c2cccnc2)n1)c1ccccc1Cl |  | inconclusive: 10.4 µM [inhibitor, single point]
COc1ccc(C(=O)COc2ccc3c(C)cc(=O)oc3c2)cc1 |  | inconclusive: 10.4 µM [inhibitor, single point]
Cc1ccc(-n2nc(C)c3c(C)c(CCC(=O)NC(C)c4ccccc4)c(C)nc32)cc1 (stereo unspecified) |  | active: 9.28 µM
CCOc1ccccc1NC(=O)CSc1nnc(CNC(=O)c2c(F)cccc2Cl)o1 | inactive: 26.6% | 
O=C(O)c1cccc(NC(=O)c2cn(-c3ccccc3)nc2-c2ccc([N+](=O)[O-])cc2)c1 |  | inconclusive: 18.5 µM [inhibitor, single point]
COc1ccccc1/C=N/NC1=NCCCCC1 | inactive: 35.6% | 
COc1cccc(C(=O)/C=C/Nc2ccc(S(=O)(=O)Nc3nc(C)cc(C)n3)cc2)c1 |  | active: 2.08 µM
COc1ccc(CNC(=O)[C@H](C)N2C(=O)N3CCc4c([nH]c5ccc(OC)cc45)[C@@]3(C)C2=O)cc1 |  | inconclusive: 13.1 µM [inhibitor, single point]
O=C(O)c1cnn2c1C(=O)N(Cc1cccs1)CC2 |  | inconclusive: 0.586 µM [inhibitor, full curve, poor fit]

SMILES | activity change, negative = inhibition | Potency
Cn1ccsc1=NC(=O)c1ccc([N+](=O)[O-])o1 |  | inconclusive: 20.8 µM [inhibitor, partial curve, poor fit]
COc1ccc(C(=O)NCC(=O)OCC(=O)N2CCC(C)CC2)cc1OC | inactive: 1.1% | 
COCC1CCCN(Cc2nc(-c3ccc4c(c3)OCO4)no2)C1 (stereo unspecified) |  | inconclusive: 18.5 µM [inhibitor, single point]
O=C(O)Cc1ccc2oc(-c3cccnc3)nc2c1 | inactive: 36.7% | 
CCOC(=O)C1(CC2CCCCO2)CCN(S(=O)(=O)c2cc(C)cs2)CC1 (stereo unspecified) |  | inconclusive: 10.4 µM [inhibitor, single point]
Oc1cccnc1SCc1ccccc1 | inactive: 109% | 
COc1cccc(NC(=O)NCc2ccc(F)cc2)c1 |  | inconclusive: 3.29 µM [inhibitor, single point]
COc1ccccc1OCCNC(=O)c1ccc(C)o1 | inactive: 59.9% | 
COCC(=O)N1CCC(Oc2ccc(C(=O)N3C[C@@H](C)O[C@@H](C)C3)cc2)CC1 |  | inconclusive: 16.5 µM [inhibitor, partial curve, poor fit]
Cc1cc(C)nc(N(C#N)Cc2ccccc2Cl)n1 | inactive: 60% | 
Cc1cc(C(=O)COC(=O)C2=NNC(=O)CC2)c(C)n1CCc1ccccc1 |  | inconclusive: 7.38 µM [inhibitor, single point]
COc1ccccc1CNC(=O)COC(=O)c1ccc([N+](=O)[O-])o1 | inactive: -11.3% | 
O=C(NCc1ccccc1)c1ccc(NC(=O)C2CCCO2)cc1 (stereo unspecified) |  | inconclusive: 6.57 µM [inhibitor, partial curve, poor fit]
Cc1ccc(C)c(S(=O)(=O)Nc2ccc(O)c3ccccc23)c1 |  | inconclusive: 18.5 µM [inhibitor, single point]
Cc1sc2ncnc(N3CCC(C(=O)NNC(=O)COc4cccc(C(F)(F)F)c4)CC3)c2c1C |  | inconclusive: 10.4 µM [inhibitor, single point]
Cc1ccc(CNC(=O)CN2C(=O)CSc3ccc(S(=O)(=O)N4CCCCC4)cc32)cc1 | inactive: 18.8% | 
O=C(Nc1ccccc1)c1cccc(N2CCCC2=O)c1 |  | inconclusive: 18.5 µM [inhibitor, single point]
Clc1ccc2nc(-c3ccc(Cl)nc3)[nH]c2c1 |  | inconclusive: 16.5 µM [inhibitor, single point]
COc1ccc(OC)c(NC(=O)NC2CCCCCCC2)c1 | inactive: 44.9% | 
COc1ccc(F)cc1CN1CCN(c2cc(C)nc3c4c(C)cc(C)nc4nn23)CC1 |  | inconclusive: 18.5 µM [inhibitor, single point]
Cc1nnc(NC(=O)CN2CCN(Cc3ccccc3Cl)CC2)s1 |  | inconclusive: 16.5 µM [inhibitor, single point]
CC(C)N1CCN(Cc2cnc(N3CCCC3)s2)CC1CCO (stereo unspecified) |  | active: 9.28 µM
O=C(OCC(=O)N1c2ccccc2Sc2ccccc21)c1ccc[n+]([O-])c1 |  | inconclusive: 14.7 µM [inhibitor, single point]

Complete entries from above.
Cc1cc(C(=O)COC(=O)C2=NNC(=O)CC2)c(C)n1CCc1ccccc1 as listed: Potency: inconclusive: 7.38 µM [inhibitor, single point]
Cc1cnc(C(=O)Nc2cccc(-c3nnc4n3CCCCC4)c2)cn1 as listed: Potency: inconclusive: 7.38 µM [inhibitor, partial curve]
COCC(C)NC(=O)c1ccccc1[N+](=O)[O-] (stereo unspecified) as listed: Potency: inconclusive: 18.5 µM [inhibitor, single point]
